In US20180072816A1:
Results are given in words; binding and its absence hold for the method and conditions named. Some results given as binding are weak or reduced against the parent protein; the word gives no strength.

By UniProt entry, the sequences of proteins in these tests, tags left out. Where a name states a change or a piece, a line headed by the entry shows the natural chain unless it says otherwise.
UniProt P61073: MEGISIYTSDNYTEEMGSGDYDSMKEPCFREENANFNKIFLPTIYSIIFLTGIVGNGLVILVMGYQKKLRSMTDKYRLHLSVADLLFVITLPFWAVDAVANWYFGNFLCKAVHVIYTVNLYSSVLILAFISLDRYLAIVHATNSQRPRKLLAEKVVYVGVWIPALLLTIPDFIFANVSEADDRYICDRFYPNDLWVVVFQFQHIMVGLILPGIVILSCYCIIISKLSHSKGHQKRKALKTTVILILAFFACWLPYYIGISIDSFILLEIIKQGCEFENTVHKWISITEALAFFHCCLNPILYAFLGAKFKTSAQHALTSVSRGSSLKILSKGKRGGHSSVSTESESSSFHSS

Biological target: human CXCR4 (human) (UniProt P61073)
Assay: phage display selection on hCXCR4 lipoparticles or CXCR4 positive cells

binding: binds
B1: ADCX-668 (designed binder)
chain: LQVDIVPSQGEISVGESKFFLCQVAGTIWYEQISWFTPNGEKLTPNQQRISVVWNDDSSSTLTIYNANIDDAGIYKCVVWTRPVTSSMHEATVNVKIFQ
